{"source": "patent US20170189504A1", "about": "“NOVEL PEPTIDES AND COMBINATION OF PEPTIDES FOR USE IN IMMUNOTHERAPY AGAINST VARIOUS CANCERS” (immatics biotechnologies GmbH, priority 2015, published 2017)", "system": "HLA-A*02", "assay": "Identification and relative LC-MS quantitation of HLA-A*02-presented tumor-associated peptides on tissue samples (presentation profiles, Tables 13A, 13B, 15, FIG. 1)", "set-up": "species or system human; key to Presentation score NHL / Presentation score CLL / Presentation score BRCA / Presentation score AML / Presentation score GB / Presentation score NSCLC / Presentation score GBC_CCC / Presentation score UEC / Presentation score MEL / Presentation score OSCAR / Presentation score GC / Presentation score UBC / Presentation score OC / Presentation score RCC / Presentation score CRC / Presentation score PCA / Presentation score HCC / Presentation score PC / Presentation score SCLC: specifically presented on tumors (++++); very highly over-presented on tumors compared to a panel of normal tissues (+++); highly over-presented on tumors compared to a panel of normal tissues (++); over-presented on tumors compared to a panel of normal tissues (+)", "conditions": "for Presentation score BRCA: breast cancer (N = 17) vs panel of normal tissues (N = 262); for Presentation score CRC: colorectal cancer (N = 28) vs panel of normal tissues (N = 262); for Presentation score OSCAR: esophageal cancer, including cancer of the gastric-esophageal junction (N = 17) vs panel of normal tissues (N = 262); for Presentation score NSCLC: non-small cell lung cancer (N = 90) vs panel of normal tissues (N = 262); for Presentation score RCC: renal cell carcinoma (N = 20) vs panel of normal tissues (N = 262); for Presentation score UBC: urinary bladder cancer (N = 16) vs panel of normal tissues (N = 262); for Peptide Presentation on cancer entities: HLA-A*02-binding tumor-associated peptides; for Presentation score AML: acute myeloid leukemia (N = 18) vs panel of normal tissues (N = 262); for Presentation score CLL: chronic lymphocytic leukemia (N = 17) vs panel of normal tissues (N = 262); for Presentation score GBC_CCC: gallbladder adenocarcinoma and cholangiocarcinoma (N = 6) vs panel of normal tissues (N = 262); for Presentation score NHL: non-Hodgkin lymphoma (N = 18) vs panel of normal tissues (N = 262); for Presentation score OC: ovarian cancer (N = 20) vs panel of normal tissues (N = 262); for Presentation score UEC: uterine cancer (N = 15) vs panel of normal tissues (N = 262); for Presentation score GB: glioblastoma (N = 41) vs panel of normal tissues (N = 262); for Presentation score GC: gastric cancer (N = 29) vs panel of normal tissues (N = 262)", "key": {"[1]": {"conditions": "Table 13A, cancer entities on which the peptide was found presented"}, "[2]": {"conditions": "Table 13B, presentation on additional cancer entities"}, "[3]": {"conditions": "FIG. 1, A*02 positive samples, only samples with presentation shown"}}}
{"substance": "18 (ILLDLTDNRL; listed as Homo sapiens) [compound 18]", "values": [{"measurement": "Presentation score BRCA", "setting": "HLA-A*02 peptides", "result": "++++"}, {"measurement": "Presentation score CRC", "setting": "HLA-A*02 peptides", "result": "++++"}, {"measurement": "Presentation score OSCAR", "setting": "HLA-A*02 peptides", "result": "++++"}, {"measurement": "Presentation score MEL", "setting": "HLA-A*02 peptides, melanoma (N = 7) vs panel of normal tissues (N = 262)", "result": "++++"}, {"measurement": "Presentation score NSCLC", "setting": "HLA-A*02 peptides", "result": "++++"}, {"measurement": "Presentation score RCC", "setting": "HLA-A*02 peptides", "result": "++++"}, {"measurement": "Presentation score UBC", "setting": "HLA-A*02 peptides", "result": "++++"}, {"measurement": "Peptide Presentation on cancer entities", "setting": "[1]", "result": "NSCLC, OSCAR, UBC, BRCA, MEL, RCC, CRC"}, {"measurement": "Peptide Presentation on cancer entities", "setting": "[2]", "result": "AML, HNSCC"}]}
{"substance": "140 (VLLEELEAL; listed as Homo sapiens) [compound 140]", "values": [{"measurement": "Presentation score AML", "setting": "HLA-A*02 peptides", "result": "++"}, {"measurement": "Presentation score CLL", "setting": "HLA-A*02 peptides", "result": "++"}, {"measurement": "Presentation score GBC_CCC", "setting": "HLA-A*02 peptides", "result": "+"}, {"measurement": "Presentation score NHL", "setting": "HLA-A*02 peptides", "result": "+"}, {"measurement": "Presentation score OC", "setting": "HLA-A*02 peptides", "result": "+"}, {"measurement": "Presentation score UEC", "setting": "HLA-A*02 peptides", "result": "+++"}, {"measurement": "Peptide Presentation on cancer entities", "setting": "[1]", "result": "NSCLC, PCA, CLL, OSCAR, OC, SCLC, UEC, BRCA, GBC_CCC, MEL, AML, NHL"}, {"measurement": "Peptide Presentation on cancer entities", "setting": "[2]", "result": "HCC, CRC, HNSCC"}]}
{"substance": "262 (FMVDKAIYL; listed as Homo sapiens) [compound 262]", "values": [{"measurement": "Presentation score BRCA", "setting": "HLA-A*02 peptides", "result": "+"}, {"measurement": "Presentation score CRC", "setting": "HLA-A*02 peptides", "result": "++"}, {"measurement": "Presentation score GBC_CCC", "setting": "HLA-A*02 peptides", "result": "+"}, {"measurement": "Presentation score NHL", "setting": "HLA-A*02 peptides", "result": "+++"}, {"measurement": "Presentation score NSCLC", "setting": "HLA-A*02 peptides", "result": "+++"}, {"measurement": "Presentation score PCA", "setting": "HLA-A*02 peptides, prostate cancer and benign prostate hyperplasia (N = 39) vs panel of normal tissues (N = 262)", "result": "+"}, {"measurement": "Presentation score SCLC", "setting": "HLA-A*02 peptides, small cell lung cancer (N = 19) vs panel of normal tissues (N = 262)", "result": "+++"}, {"measurement": "Peptide Presentation on cancer entities", "setting": "[1]", "result": "GC, NSCLC, PCA, OSCAR, OC, SCLC, BRCA, GBC_CCC, CRC, PC, NHL"}, {"measurement": "Peptide Presentation on cancer entities", "setting": "[2]", "result": "UEC, MEL, HNSCC"}]}
{"substance": "1 (LLYPEPWSV; listed as Homo sapiens) [compound 1]", "values": [{"measurement": "Presentation score GB", "setting": "HLA-A*02 peptides", "result": "++++"}, {"measurement": "Presentation score NSCLC", "setting": "HLA-A*02 peptides", "result": "++++"}, {"measurement": "Presentation score OC", "setting": "HLA-A*02 peptides", "result": "++++"}, {"measurement": "Peptide Presentation on cancer entities", "setting": "[1]", "result": "GB, NSCLC, OC"}, {"measurement": "Peptide Presentation on cancer entities", "setting": "[2]", "result": "SCLC, UEC, HNSCC"}]}
{"substance": "76 (AVGPVHNSV; listed as Homo sapiens) [compound 76]", "values": [{"measurement": "Presentation score OSCAR", "setting": "HLA-A*02 peptides", "result": "++++"}, {"measurement": "Presentation score GC", "setting": "HLA-A*02 peptides", "result": "++++"}, {"measurement": "Peptide Presentation on cancer entities", "setting": "[1]", "result": "GC, OSCAR"}, {"measurement": "Peptide Presentation on cancer entities", "setting": "[2]", "result": "NSCLC"}]}
{"substance": "151 (SVLDSTAKV; listed as Homo sapiens) [compound 151]", "values": [{"measurement": "Presentation score OSCAR", "setting": "HLA-A*02 peptides", "result": "+"}, {"measurement": "Presentation score GC", "setting": "HLA-A*02 peptides", "result": "+"}, {"measurement": "Presentation score OC", "setting": "HLA-A*02 peptides", "result": "++"}, {"measurement": "Presentation score RCC", "setting": "HLA-A*02 peptides", "result": "+"}, {"measurement": "Peptide Presentation on cancer entities", "setting": "[1]", "result": "GC, NSCLC, OSCAR, OC, UBC, BRCA, RCC, CRC, NHL"}, {"measurement": "Peptide Presentation on cancer entities", "setting": "[2]", "result": "HCC, UEC, GBC_CCC, MEL, HNSCC"}]}
{"substance": "12 (GLLPLLHRA; listed as Homo sapiens) [compound 12]", "values": [{"measurement": "Presentation score GB", "setting": "HLA-A*02 peptides", "result": "++++"}, {"measurement": "Presentation score NSCLC", "setting": "HLA-A*02 peptides", "result": "++++"}, {"measurement": "Presentation score RCC", "setting": "HLA-A*02 peptides", "result": "++++"}, {"measurement": "Presentation score UEC", "setting": "HLA-A*02 peptides", "result": "++++"}, {"measurement": "Peptide Presentation on cancer entities", "setting": "[1]", "result": "GB, NSCLC, UEC, RCC"}, {"measurement": "Peptide Presentation on cancer entities", "setting": "[2]", "result": "MEL, RCC"}]}
{"substance": "233 (HLFDAFVSV; listed as Homo sapiens) [compound 233]", "values": [{"measurement": "Presentation score AML", "setting": "HLA-A*02 peptides", "result": "++++"}, {"measurement": "Presentation score BRCA", "setting": "HLA-A*02 peptides", "result": "++++"}, {"measurement": "Presentation score CRC", "setting": "HLA-A*02 peptides", "result": "++++"}, {"measurement": "Presentation score NHL", "setting": "HLA-A*02 peptides", "result": "++++"}, {"measurement": "Presentation score NSCLC", "setting": "HLA-A*02 peptides", "result": "++++"}, {"measurement": "Presentation score UBC", "setting": "HLA-A*02 peptides", "result": "++++"}, {"measurement": "Peptide Presentation on cancer entities", "setting": "[1]", "result": "NSCLC, UBC, BRCA, CRC, AML, NHL"}, {"measurement": "Peptide Presentation on cancer entities", "setting": "[2]", "result": "MEL"}]}
{"substance": "67 (TLLQRLTEV; listed as Homo sapiens) [compound 67]", "values": [{"measurement": "Presentation score AML", "setting": "HLA-A*02 peptides", "result": "+++"}, {"measurement": "Presentation score CLL", "setting": "HLA-A*02 peptides", "result": "+++"}, {"measurement": "Presentation score NSCLC", "setting": "HLA-A*02 peptides", "result": "+++"}, {"measurement": "Presentation score RCC", "setting": "HLA-A*02 peptides", "result": "+++"}, {"measurement": "Peptide Presentation on cancer entities", "setting": "[1]", "result": "NSCLC, CLL, RCC, AML"}, {"measurement": "Peptide Presentation on cancer entities", "setting": "[2]", "result": "NHL"}]}
{"substance": "118 (QLWQFLVTL; listed as Homo sapiens) [compound 118]", "values": [{"measurement": "Presentation score OC", "setting": "HLA-A*02 peptides", "result": "++++"}, {"measurement": "Peptide Presentation on cancer entities", "setting": "[2]", "result": "MEL"}]}
{"substance": "92 (GLLFSLRSV; listed as Homo sapiens) [compound 92]", "values": [{"measurement": "number of cancer tissues where the peptide was found to be presented", "setting": "[3]", "result": 14}, {"measurement": "number of cell lines where the peptide was found to be presented", "setting": "[3]", "result": 2}, {"measurement": "number of normal tissues where the peptide was found to be presented", "setting": "[3]", "result": 1}, {"measurement": "Presentation score OSCAR", "setting": "HLA-A*02 peptides", "result": "+"}, {"measurement": "Presentation score RCC", "setting": "HLA-A*02 peptides", "result": "+"}, {"measurement": "Peptide Presentation on cancer entities", "setting": "[1]", "result": "NSCLC, HCC, PCA, CLL, OSCAR, OC, UBC, BRCA, MEL, RCC, CRC, AML, NHL"}, {"measurement": "Peptide Presentation on cancer entities", "setting": "[2]", "result": "SCLC, HNSCC"}]}
{"substance": "126 (QMFQYFITV; listed as Homo sapiens) [compound 126]", "values": [{"measurement": "Presentation score CLL", "setting": "HLA-A*02 peptides", "result": "++++"}, {"measurement": "Presentation score NSCLC", "setting": "HLA-A*02 peptides", "result": "++++"}, {"measurement": "Peptide Presentation on cancer entities", "setting": "[1]", "result": "NSCLC, CLL"}, {"measurement": "Peptide Presentation on cancer entities", "setting": "[2]", "result": "UEC"}]}
